Test results as given in PubChem BioAssay AID493014 (National Center for Advancing Translational Sciences (NCATS), 2011).
The other results are listed elsewhere or left out. Further columns of the screen follow, without active or inactive calls. The list favours compounds with an active or inconclusive main result. Words in brackets tell the shape of the fitted curve; partial curves, single points and poor fits give uncertain potencies.

Assay: qHTS Assay to Find Inhibitors of Chronic Active B-Cell Receptor Signaling
Conditions: ABC-DLBCL IkBa-CBG/CBR reporter, luminescence ratio (green luciferase fused to IkBa over red control in TMD8 lymphoma cells), 4 h
Outline: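 Concentration-response series (up to 46 uM) were applied to TMD8 dual-reporter cells for 4 h at 37C with doxycycline. Green/red ratio, after filter-overlap correction, defined %Activity; red signal alone was normalised to basal cells and zero luminescence.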

[1] = measured here: CBR red luminescence, cell number
[2] = measured here: IkBa-CBG green luminescence

Row | Compound | AC50 [1] | AC50 [2]
1 | O=C1NCC(O)=C1C=NCCO | 1.3 µM [rising, partial curve, poor fit] | –
2 | CC1(C)C([N+](=O)[O-])C(c2ccc(Cl)cc2)NC(c2ccc(Cl)cc2)C1[N+](=O)[O-] (stereo unspecified) | – | 20.6 µM [rising, partial curve, poor fit]
3 | COc1ccc(-c2ncc(CN3CCN(CCC(C)C)C(CCO)C3)cn2)cc1 (stereo unspecified) | 3.16 µM [rising, single point] | –
4 | CCOC(=O)c1c(C=O)c(C)n(Cc2ccc(Cl)cc2)c1C | – | 11.6 µM [falling, partial curve, poor fit]
5 | Oc1ccccc1N1CCN(CC(O)COCc2ccccc2Cl)CC1 (stereo unspecified) | 4.47 µM [rising, partial curve, poor fit] | –
6 | CCOc1ccc(-c2nc(-c3ccccc3C)no2)cc1 | 6.51 µM [falling, single point] | –
7 | CC(=O)c1cc(OC(=O)c2ccncc2)ccc1OC(=O)c1ccncc1 | 6.51 µM [falling, single point] | –
8 | CCOc1ccc(CNC(=O)CCS(=O)(=O)Cc2ccccc2C)cc1OC | 20 µM [rising, single point] | –
9 | CSc1nnc(N2C(=O)C(O)=C(C(=O)c3ccco3)C2c2cccc(Cl)c2)s1 (stereo unspecified) | 2.24 µM [falling, full curve, poor fit] | –
10 | O=C(C1CCCC1)N1CCN=C1SCc1cccc([N+](=O)[O-])c1 | 25.1 µM [falling, single point] | –
11 | CNC(=S)NNC(=O)c1cc(C(C)(C)C)nn1Cc1ccc(F)cc1 | 31.6 µM [rising, single point] | 35.5 µM [falling, single point]
12 | CN(C)/C=C/C(=O)c1ccc2noc(-c3ccc(F)cc3)c2c1 | 22.4 µM [falling, single point] | –
13 | Nc1c(Cl)c(Cl)nc(C(=O)OCC(=O)N2CCCC2=O)c1Cl | 6.51 µM [rising, full curve] | –
14 | COc1cc(CNC2CCCC2)cc(Cl)c1OCc1ccc(F)cc1 | 23.1 µM [falling, partial curve] | 16.4 µM [rising, partial curve, poor fit]
15 | O=C(NC1CC1)c1cc2cc3ccccc3nc2s1 | 20 µM [falling, single point] | –
16 | COc1ccccc1S(=O)(=O)N1CCn2cccc2C1C (stereo unspecified) | 2.91 µM [falling, full curve] | –
17 | CC(C)NC(=S)N/N=C/C1=CCC2CC1C2(C)C (stereo unspecified) | 29.1 µM [falling, single point] | –
18 | CC(C)OC(=O)/C(C#N)=C/c1c[nH]c2ccccc12 | 0.206 µM [rising, full curve] | –
19 | CC(C)c1nc(CNC(=O)c2cc(COc3c(F)cccc3F)on2)cs1 | 11.2 µM [falling, partial curve] | 11.2 µM [rising, partial curve, poor fit]
20 | CC(=O)Nc1sc(N/N=C/c2ccccc2F)nc1-c1ccc(C)cc1 | 12.6 µM [falling, single point] | –
21 | Cc1ccc(N2CCN(S(=O)(=O)c3ccc4c(c3)n(C)c(=O)c(=O)n4C)CC2C)cc1 (stereo unspecified) | 0.82 µM [rising, full curve, poor fit] | –

Row | Compound | AC50 [1] | AC50 [2]
22 | Cc1ccc(C)c(OCC(=O)O/N=C(\N)c2cccc([N+](=O)[O-])c2)c1 | 1.26 µM [rising, partial curve, poor fit] | –
23 | O=c1[nH]c2cc3c(cc2cc1CN(CC1CCCO1)S(=O)(=O)c1ccc(Cl)cc1)OCCO3 (stereo unspecified) | 23.1 µM [rising, partial curve, poor fit] | –
24 | CCOC(=O)c1c(NC(=O)c2ccccc2Cl)sc2c1CCc1ccccc1-2 | 20.6 µM [falling, partial curve, poor fit] | –
25 | Cc1[nH]c2ccccc2c1C(=O)CSc1ccc(Cl)cc1 | 0.708 µM [rising, full curve, poor fit] | –
26 | O=C(Nc1ccccc1)Nc1ccccc1C(=O)NCCCN1CCOCC1 | 4.47 µM [falling, partial curve] | –
27 | OC1CCCCC1Sc1nc2ccccc2s1 (stereo unspecified) | 2.82 µM [rising, full curve, poor fit] | –
28 | Cc1cc(C)c(NC(=O)c2cc(S(=O)(=O)N3CCCC3)cn2C)c(C)c1 | 35.5 µM [falling, single point] | –
29 | COc1ccc(C2Nc3ccccc3C(=O)N2c2ccc(C)cc2)cc1Cn1nc(C)c([N+](=O)[O-])c1C (stereo unspecified) | 12.6 µM [rising, partial curve] | –
30 | COc1ccc(CNC(=O)c2cc(-c3cc(C)ccc3O)n[nH]2)cc1 | 12.6 µM [falling, partial curve, poor fit] | –
31 | Cc1nn2c(NCCOCCO)c3c(nc2c1-c1ccccc1)CCC3 | 31.6 µM [falling, single point] | –
32 | COc1ccc(C2CC(c3ccccc3)=NN2C(=O)COC(=O)CNC(=O)c2ccccc2)cc1 (stereo unspecified) | 13 µM [rising, partial curve, poor fit] | –
33 | O=C(NCc1ccccc1)c1n[nH]nc1-c1ccccc1O | 4.47 µM [falling, full curve] | –
34 | Cc1cccc(N=C2NN=C(c3c(C)[nH]c4ccccc34)CS2)c1 | – | 23.1 µM [rising, single point]
35 | Cn1c(N)c(S(=O)(=O)N2CCN(c3ccccc3F)CC2)c(=O)n(C)c1=O | 35.5 µM [rising, single point] | –
36 | COc1ccc(/C=C2/SC(=S)N(CCCC(=O)Nc3ccccc3C(=O)O)C2=O)cc1 | 0.316 µM [falling, full curve] | –
37 | CN1CCN(Cc2c(O)ccc3occ(C(=O)c4ccccc4)c23)CC1 | 11.6 µM [falling, partial curve] | –
38 | CCc1ccc(CNC(=O)c2cc3c(C)nc4ccccc4c3o2)cc1 | 29.1 µM [falling, single point] | –
39 | CNc1ccccc1-n1ccc(-c2ccccc2)n1 | 3.66 µM [rising, partial curve, poor fit] | –
40 | CCn1c(SCc2ccc(OC)cc2)nnc1-c1ccncc1 | 23.1 µM [falling, partial curve, poor fit] | –
41 | Cc1nc2ncnn2c(C)c1CCC(=O)N1CCc2ccccc21 | 0.0291 µM [rising, full curve, poor fit] | –
42 | COc1ccccc1NC(=O)C(=O)NCC(c1ccco1)N1CCc2ccccc21 (stereo unspecified) | 9.2 µM [falling, partial curve, poor fit] | –

Row | Compound | AC50 [1] | AC50 [2]
43 | CCOc1ccc(NC(=O)c2cccc(OC(=S)N3CCOCC3)c2)cc1 | 7.08 µM [falling, partial curve] | –
44 | CCCn1c(SCC(=O)NC2CCCCC2)nnc1C1CC1 | 0.1 µM [rising, full curve, poor fit] | –
45 | CC(=O)Nc1cccc(C(=O)/C=C/c2ccc(Br)cc2)c1 | 16.4 µM [falling, partial curve] | –
46 | O=C(COC(=O)c1ccc(N2CCCC2=O)cc1)NCc1ccco1 | 0.0891 µM [falling, full curve, poor fit] | –
47 | COC(=O)c1ccc(NC(=O)c2cnc3scc(C)n3c2=O)cc1 | 3.16 µM [falling, partial curve, poor fit] | –
48 | COc1ccc(S(=O)(=O)NCC(c2ccco2)S(=O)(=O)c2cccs2)cc1OC (stereo unspecified) | 28.2 µM [falling, single point] | –
49 | CC1Cc2ccccc2N1c1ncnc(N)c1[N+](=O)[O-] (stereo unspecified) | 35.5 µM [falling, single point] | 15.8 µM [rising, single point]
50 | C#CCOCCOCCOCCNc1nc(N2CCN(C(=O)CCCCCCCCCCNC(=O)[C@H](CCCN=C(N)N)n3cc(C[C@@H](C)CC)nn3)CC2)nc(N2CCN(C(=O)CCCCCCCCCCNC(=O)[C@@H]([C@H](C)CC)n3cc(CCCCCN)nn3)CC2)n1 | 7.31 µM [falling, partial curve, poor fit] | –
51 | COc1ccc(N(C(=O)c2ccccc2OC)C2C=CS(=O)(=O)C2)c(OC)c1 (stereo unspecified) | 6.51 µM [rising, single point] | –
52 | CN(C)c1cc(-c2ccc(F)cc2)oc(=O)c1Cl | 0.794 µM [rising, full curve, poor fit] | –
53 | CCOC(=O)c1ccc(COC(=O)CNS(=O)(=O)c2ccccc2)cc1 | 6.31 µM [falling, single point] | –
54 | CCOC(=O)CN1C(=O)S/C(=C/c2cccc([N+](=O)[O-])c2O)C1=O | 1.58 µM [rising, full curve] | –
55 | Cc1ccc(N/N=C/c2cccnc2)cc1 | 20.6 µM [rising, partial curve] | –
56 | COc1ccc(N(CC(=O)N2CCC(Cc3ccccc3)CC2)S(C)(=O)=O)cc1 | 0.708 µM [falling, partial curve, poor fit] | –
57 | Clc1ccc(CSc2nnc(Cn3cnc4ccccc43)o2)cc1 | 18.4 µM [falling, single point] | –
58 | COC(=O)/C(C#N)=C/c1ccc(OC(=O)c2ccccn2)cc1 | 9.2 µM [falling, partial curve] | –
59 | CCNC(=O)CC1C(=O)N(c2cccc(OC)c2)C(=O)N1CCOC (stereo unspecified) | 29.1 µM [rising, single point] | –
60 | S=c1nc2ccccc2c2nc(-c3ccccc3Cl)[nH]n12 | – | 0.501 µM [falling, partial curve, poor fit]
61 | Cc1ccnc(NC(=O)CSc2ccc3c(c2)OCCO3)c1 | 18.4 µM [falling, single point] | –
62 | O=[N+]([O-])c1cccc(-n2cc3ccc([N+](=O)[O-])cc3n2)c1 | 0.164 µM [rising, full curve, poor fit] | –

Of the compounds above, 14 contain an aryl methoxy group:
Row | Compound | AC50 [1] | AC50 [2]
3 | COc1ccc(-c2ncc(CN3CCN(CCC(C)C)C(CCO)C3)cn2)cc1 (stereo unspecified) | 3.16 µM [rising, single point] | –
8 | CCOc1ccc(CNC(=O)CCS(=O)(=O)Cc2ccccc2C)cc1OC | 20 µM [rising, single point] | –
14 | COc1cc(CNC2CCCC2)cc(Cl)c1OCc1ccc(F)cc1 | 23.1 µM [falling, partial curve] | 16.4 µM [rising, partial curve, poor fit]
16 | COc1ccccc1S(=O)(=O)N1CCn2cccc2C1C (stereo unspecified) | 2.91 µM [falling, full curve] | –
29 | COc1ccc(C2Nc3ccccc3C(=O)N2c2ccc(C)cc2)cc1Cn1nc(C)c([N+](=O)[O-])c1C (stereo unspecified) | 12.6 µM [rising, partial curve] | –
30 | COc1ccc(CNC(=O)c2cc(-c3cc(C)ccc3O)n[nH]2)cc1 | 12.6 µM [falling, partial curve, poor fit] | –
32 | COc1ccc(C2CC(c3ccccc3)=NN2C(=O)COC(=O)CNC(=O)c2ccccc2)cc1 (stereo unspecified) | 13 µM [rising, partial curve, poor fit] | –
36 | COc1ccc(/C=C2/SC(=S)N(CCCC(=O)Nc3ccccc3C(=O)O)C2=O)cc1 | 0.316 µM [falling, full curve] | –
40 | CCn1c(SCc2ccc(OC)cc2)nnc1-c1ccncc1 | 23.1 µM [falling, partial curve, poor fit] | –
42 | COc1ccccc1NC(=O)C(=O)NCC(c1ccco1)N1CCc2ccccc21 (stereo unspecified) | 9.2 µM [falling, partial curve, poor fit] | –
48 | COc1ccc(S(=O)(=O)NCC(c2ccco2)S(=O)(=O)c2cccs2)cc1OC (stereo unspecified) | 28.2 µM [falling, single point] | –
51 | COc1ccc(N(C(=O)c2ccccc2OC)C2C=CS(=O)(=O)C2)c(OC)c1 (stereo unspecified) | 6.51 µM [rising, single point] | –
56 | COc1ccc(N(CC(=O)N2CCC(Cc3ccccc3)CC2)S(C)(=O)=O)cc1 | 0.708 µM [falling, partial curve, poor fit] | –
59 | CCNC(=O)CC1C(=O)N(c2cccc(OC)c2)C(=O)N1CCOC (stereo unspecified) | 29.1 µM [rising, single point] | –
